Results deposited as PubChem BioAssay AID504804 (Drosophila RNAi Screening Center, 2011)

- Aim: 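Knock-downs shielding fly cells from apoptosis caused by DNA damage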 (primary screen)
- System: Drosophila Kc cells
- Knock-down reagent: long dsRNA against Drosophila genes, 0.5 µg dsRNA per well
- Duration: 96 h (48 h knock-down, then 48 h drug)
- Treatment: doxorubicin 5 µg/ml for 48 h, added 48 h after dsRNA
- Measurement: 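Luminescent ATP counts per replicate, not normalised, reflecting viable cells after 48 h dsRNA knock-down followed by 48 h of 5 µg/ml doxorubicin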
- Reading the numbers: raw ATP luminescence: higher = more viable cells, protection from doxorubicin
- Active means: 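z-score of 2 or more over plate mean in both duplicates, retained only when retests and separate dsRNAs confirm the protection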
The screen tested about 19,000 reagents; shown is a random part of those that have a named target and a result. In the full data, 47 (0.25%) are marked active. 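Signals are raw, not normalised; exact z-scores behind calls not deposited; actives needed confirmation, so some wells reaching 2 SD are inactive.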

target gene	dsRNA	SD above plate mean	raw ATP luminescence, replicate 1	raw ATP luminescence, replicate 2	Outcome
CG31642	DRSC02919		1.09e5	1.04e5	inactive
CG11019 (retired record)	DRSC02117		46453	55320	inactive
thoc7	DRSC08512		43293	55737	inactive
CG8197	DRSC07105		52140	75187	inactive
Cyp12c1	DRSC11125	2 to 3 SD above plate mean	49720	43300	inactive
Cpsf160	DRSC05968		60663	54290	inactive
CG15185	DRSC12565		63927	59640	inactive
CG18476	DRSC15281		56627	28513	inactive
CG11275	DRSC04095		76953	74237	inactive
CG5704	DRSC08572		51493	44760	inactive
msn	DRSC07990		1.68e5	1.45e5	inactive
AlkB	DRSC19115		2.02e5	2.56e5	inactive
CG3823	DRSC18325		34830	38550	inactive
strat	DRSC03069		35580	64987	inactive

No new results follow: entries from further up.
target gene	dsRNA	SD above plate mean	raw ATP luminescence, replicate 1	raw ATP luminescence, replicate 2	Outcome
msn	DRSC07990		1.68e5	1.45e5	inactive
AlkB	DRSC19115		2.02e5	2.56e5	inactive
CG3823	DRSC18325		34830	38550	inactive

More entries:
target gene	dsRNA	SD above plate mean	raw ATP luminescence, replicate 1	raw ATP luminescence, replicate 2	Outcome
CG31010	DRSC14006		2.57e5	2.16e5	inactive
Fntb	DRSC15244		46337	35027	inactive
CG10171	DRSC09711		34040	42667	inactive
GstE12	DRSC04047		70920	67480	inactive
Sirt6	DRSC16010		63400	56270	inactive
CG13502	DRSC04147		56637	49307	inactive
Oga	DRSC15901		40380	37977	inactive
LPCAT	DRSC18157		4.45e5	3.60e5	inactive
LPCAT	DRSC18257		2.49e5	2.74e5	inactive
mRpL39	DRSC10255		79520	66587	inactive
CG7168	DRSC16208		35853	56710	inactive
CG15579	DRSC18067		37750	49740	inactive
CG8229	DRSC07114		50967	53687	inactive
CG31817	DRSC01537		2.87e5	2.87e5	inactive
CG31817	DRSC01538		2.97e5	2.86e5	inactive
CG15517	DRSC15056		67140	51920	inactive
Oct-TyrR	DRSC11883		75920	58487	inactive
CG1428	DRSC03708		63407	61277	inactive
CG10286	DRSC12520		65623	27703	inactive
Zip88E	DRSC15562		95830	1.21e5	inactive
